We go through four molecules from patent US20240034785A1, “RXR-ALPHA BINDERS AND RXR-ALPHA/PLK1 MODULATORS” (NUCMITO PHARMACEUTICALS CO. LTD., priority 2020, published 2024).

Assay [1] has as its target T1, retinoic acid receptor-γ (RARγ) (UniProt P13631).
T1 sequence (looked up): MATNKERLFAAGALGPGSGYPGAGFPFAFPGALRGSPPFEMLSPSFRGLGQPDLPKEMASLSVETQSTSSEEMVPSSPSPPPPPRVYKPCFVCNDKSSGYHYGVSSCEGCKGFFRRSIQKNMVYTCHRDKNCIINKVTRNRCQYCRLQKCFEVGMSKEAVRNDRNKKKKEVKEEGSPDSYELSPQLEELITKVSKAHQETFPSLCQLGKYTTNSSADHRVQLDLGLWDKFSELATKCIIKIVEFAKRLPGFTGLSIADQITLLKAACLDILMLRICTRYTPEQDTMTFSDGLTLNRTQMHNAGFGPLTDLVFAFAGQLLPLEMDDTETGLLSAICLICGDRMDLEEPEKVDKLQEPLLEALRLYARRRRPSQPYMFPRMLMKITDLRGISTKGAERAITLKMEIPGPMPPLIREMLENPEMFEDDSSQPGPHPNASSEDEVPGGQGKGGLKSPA
The experiment in a line: CoIP of Myc-RXRα and FLAG-RARγ in HeLa cells with or without compound A1 (10 µM, 3 hr) (FIG. 55).

Assay [2] deals with T2, regular 55 kDa RXRα (unmodified form) (human, UniProt P19793 1-462).
T2 construct: Non-shifted band of RXRα; Endogenous and tagged (Myc, FLAG, GST) forms are merged; also called regular RXRα; GST-RXRα (not phosphorylated)
T2 sequence: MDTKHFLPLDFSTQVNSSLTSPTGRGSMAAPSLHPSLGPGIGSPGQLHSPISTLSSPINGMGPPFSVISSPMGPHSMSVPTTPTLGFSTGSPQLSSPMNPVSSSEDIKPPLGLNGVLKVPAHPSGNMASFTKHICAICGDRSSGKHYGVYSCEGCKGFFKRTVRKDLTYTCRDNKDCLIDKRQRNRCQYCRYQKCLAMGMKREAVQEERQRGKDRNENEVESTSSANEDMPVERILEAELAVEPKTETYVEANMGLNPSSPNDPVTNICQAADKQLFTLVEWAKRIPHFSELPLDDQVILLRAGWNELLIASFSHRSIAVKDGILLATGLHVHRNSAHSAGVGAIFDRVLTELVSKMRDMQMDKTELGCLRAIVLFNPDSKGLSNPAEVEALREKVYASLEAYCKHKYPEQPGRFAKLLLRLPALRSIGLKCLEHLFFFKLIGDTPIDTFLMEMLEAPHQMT
Description: CoIP of Myc-RXRα with FLAG-RARγ in HeLa cells, western blot (FIG. 1).

For assay [3], the target named is T1, retinoic acid receptor-γ (RARγ). The experiment in a line: CoIP in HeLa cells (FIG. 5).
For assay [4] the target is unchanged. The experiment in a line: CoIP in HeLa cells (FIG. 4).

Results are given in words; binding and its absence hold for the method and conditions named. In cells and extracts the contact can be indirect. Some entries that bind do so weakly or less than the wild type.

Take “regular 55 kDa RXRα (unmodified form) (from UniProt P19793 1-462) (receptor)”: the binding result in assay [1] is on record as “binds”.

B1: retinoic acid receptor-γ (RARγ) (receptor, UniProt P13631 1-454, looked up)
chain: MATNKERLFAAGALGPGSGYPGAGFPFAFPGALRGSPPFEMLSPSFRGLGQPDLPKEMASLSVETQSTSSEEMVPSSPSPPPPPRVYKPCFVCNDKSSGYHYGVSSCEGCKGFFRRSIQKNMVYTCHRDKNCIINKVTRNRCQYCRLQKCFEVGMSKEAVRNDRNKKKKEVKEEGSPDSYELSPQLEELITKVSKAHQETFPSLCQLGKYTTNSSADHRVQLDLGLWDKFSELATKCIIKIVEFAKRLPGFTGLSIADQITLLKAACLDILMLRICTRYTPEQDTMTFSDGLTLNRTQMHNAGFGPLTDLVFAFAGQLLPLEMDDTETGLLSAICLICGDRMDLEEPEKVDKLQEPLLEALRLYARRRRPSQPYMFPRMLMKITDLRGISTKGAERAITLKMEIPGPMPPLIREMLENPEMFEDDSSQPGPHPNASSEDEVPGGQGKGGLKSPA
B1: the binding result in assay [2] was “binds”.

B2: RXRα mutant lacking the N-terminal A/B domain (receptor)
chain: CAICGDRSSGKHYGVYSCEGCKGFFKRTVRKDLTYTCRDNKDCLIDKRQRNRCQYCRYQKCLAMGMKREAVQEERQRGKDRNENEVESTSSANEDMPVERILEAELAVEPKTETYVEANMGLNPSSPNDPVTNICQAADKQLFTLVEWAKRIPHFSELPLDDQVILLRAGWNELLIASFSHRSIAVKDGILLATGLHVHRNSAHSAGVGAIFDRVLTELVSKMRDMQMDKTELGCLRAIVLFNPDSKGLSNPAEVEALREKVYASLEAYCKHKYPEQPGRFAKLLLRLPALRSIGLKCLEHLFFFKLIGDTPIDTFLMEMLEAPHQMT
notes: also called RXRα-AA/B (so in the source)
For the molecule B2, the binding entry in assay [3] is on record as “binds”.

B3: RXRα-LBD (ligand-binding domain of RXRα) (receptor)
chain: TSSANEDMPVERILEAELAVEPKTETYVEANMGLNPSSPNDPVTNICQAADKQLFTLVEWAKRIPHFSELPLDDQVILLRAGWNELLIASFSHRSIAVKDGILLATGLHVHRNSAHSAGVGAIFDRVLTELVSKMRDMQMDKTELGCLRAIVLFNPDSKGLSNPAEVEALREKVYASLEAYCKHKYPEQPGRFAKLLLRLPALRSIGLKCLEHLFFFKLIGDTPIDTFLMEMLEAPHQMT
notes: also called LBD of RXRα
Regarding B3, the binding entry in assay [4] is “binds”.
